For this experiment, the system named is MX-1 breast xenograft, nude mice, tumor weight T/C. The experiment can be described thus: NCI In Vivo Anticancer Drug Screen. Data for tumor model Human Mammary Carcinoma MX-1 Xenograft (intrarenal inoculation) in NU/NU Swiss (nude) mice. The note with it: T/C endpoint: mean tumor weight change, higher T/C = larger tumour; for T/C: evaluated on day 11. Summed up: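 Tumor-bearing mice were treated with test compound alongside a vehicle-treated control group. Survival or tumor size was measured, and activity is expressed as the treated-group value divided by the control-group value.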
For orientation: A xenograft is tissue or cells of one species grown in another, often human tumour cells in immunodeficient mice.

The list is a part of this screen's results and no random one: it gathers tests that were run many times, whatever their T/C, doses with no T/C, and many T/C values between a quarter and a half above the control. Further doses and runs are listed elsewhere. T/C gives the treated animals as a percentage of the vehicle group. Schedule codes are those of the source, taken here to give the interval after Q, in days (D) or hours (H), and the number of doses after X. Some T/C values carry the count of animals alive at the toxicity check (mostly the fifth day); without a count, all were alive then. Some doses have a count of surviving animals in place of a T/C: the source holds a T/C of zero for them, seemingly a mark for toxic or unscored doses. Counts of survivors are from the toxicity check (mostly the fifth day) where no day follows; animals may have died later.

In PubChem BioAssay AID296 (DTP/NCI, 2004) one finds survivor count and T/C data, which are given here for nine molecules.

On to `C=C1C(=O)OCC1C(=O)O` (stereo unspecified), for which, where the note is “dose: 400.0 mg/kg/injection, schedule: Q04DX003 (sc), vehicle: suspension in saline”, the survivor count is given as 0 of 6 on day 11.
With `O=C1C=CC(n2cc(F)c(=O)[nH]c2=O)O1` (stereo unspecified), the T/C (dose: 37.5 mg/kg/injection, schedule: Q04DX003 (sc), vehicle: Klucel (hydroxypropylcellulose) (HPC)) is 145 % of control [5 of 6 alive on day 11]. Also, the survivor count runs as follows: (dose: 150.0 mg/kg/injection, schedule: Q04DX003 (sc), vehicle: Klucel (hydroxypropylcellulose) (HPC)) 1 of 6 on day 11; (dose: 300.0 mg/kg/injection, schedule: Q04DX003 (sc), vehicle: Klucel (hydroxypropylcellulose) (HPC)) 0 of 6 on day 11.
Regarding `Nc1nc(=S)c2ncn(C3CC(O)C(CO)O3)c2[nH]1` (stereo unspecified), the survivor count (dose: 200.0 mg/kg/injection, schedule: Q01DX010 (sc), vehicle: Klucel (hydroxypropylcellulose) (HPC)) is recorded as 0 of 3 on day 11 and the survivor count (dose: 400.0 mg/kg/injection, schedule: Q01DX010 (sc), vehicle: Klucel (hydroxypropylcellulose) (HPC)) was 0 of 3 on day 11.
Take `CCCCCCNc1nc(NCCCCCC)c2[nH]c(NCCCCCC)nc2n1`: the T/C (dose: 150.0 mg/kg/injection, schedule: Q04DX003 (ip), vehicle: saline with Tween-80) is 128 % of control [5 of 6 alive on day 11]. Moreover, the survivor count is, setting by setting: (dose: 600.0 mg/kg/injection, schedule: Q04DX003 (ip), vehicle: saline with Tween-80) 0 of 6 on day 11; (dose: 1200.0 mg/kg/injection, schedule: Q04DX003 (ip), vehicle: saline with Tween-80) 0 of 6 on day 11.
As to `O=Cc1c(O)c2ccccc2[nH]c1=O`, the survivor count (dose: 1200.0 mg/kg/injection, schedule: Q04DX003 (sc), vehicle: saline with Tween-80) is listed as 3 of 6 on day 11.
Regarding `C1CCC(NC2CCCCC2)CC1`, the T/C (dose: 300.0 mg/kg/injection, schedule: Q04DX003 (ip), vehicle: saline) was 128 % of control. The survivor count (dose: 600.0 mg/kg/injection, schedule: Q04DX003 (ip), vehicle: saline) is recorded as 2 of 6 on day 11.
Regarding `CSCS(=O)C[C@H](CO)NC(=O)/C=C/c1c(C)[nH]c(=O)[nH]c1=O` (stereo partly specified), the T/C (dose: 1.5 mg/kg/injection, schedule: Q04DX003 (sc), vehicle: saline) was 126 % of control. Moreover, the survivor count (dose: 3.0 mg/kg/injection, schedule: Q04DX003 (sc), vehicle: saline) was 1 of 6 on day 11.
Consider `Oc1cc2ccccc2c(-c2c(O)c(O)cc3ccccc23)c1O`, for which the T/C (dose: 600.0 mg/kg/injection, schedule: Q04DX003 (sc), vehicle: saline with Tween-80) is 144 % of control.
As to `O=C[C@@H](CO)O[C@H](C=O)n1cnc2c(=O)[nH]cnc21`, the T/C (dose: 300.0 mg/kg/injection, schedule: Q04DX003 (sc), vehicle: saline with Tween-80) was 125 % of control.
